From the supplement of paper PMC4604168 (melanoma cell lines)
This is one part of the list. Repeats are few or missing, and single values can be far off.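 Imaging used 1,536-well plates; nuclei positive for cleaved PARP by antibody were divided by total DNA-stained nuclei to yield the apoptosis fraction. Doses for screening kept most cells viable, and cell lines differ markedly in resting and induced cleaved-PARP levels.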

Tested on: WM451Lu
Test: cleaved PARP positive nuclei fraction relative to DMSO control; melanoma cells; higher = more apoptosis
Settings: library dose: low library concentration; 72 h

SMILES	cleaved PARP positive nuclei fraction
CC(C)(C)c1cnc(CSc2cnc(NC(=O)C3CCNCC3)s2)o1 + OCCn1cc(-c2cnc3nnn(Cc4ccc5ncccc5c4)c3n2)cn1 [PF04217903] (first compound 0.01 µM, partner dose 1 µM)	157%
Cc1cc(N2CCOCC2)cc2[nH]c(-c3c(NC[C@@H](O)c4cccc(Cl)c4)cc[nH]c3=O)nc12 + O=C(O)C(=O)Nc1sc2c(c1C(=O)O)CCNC2 [TCS401] (first compound 0.2 µM, partner dose 1.66667 µM)	84.7%
COc1cc(Nc2ncc(F)c(Nc3ccc4c(n3)NC(=O)C(C)(C)O4)n2)cc(OC)c1OC [Tamatinib] + Cn1cc(/C=C2\C(=O)Nc3cccnc32)c2ccccc21 [GW441756] (first compound 0.4 µM, partner dose 0.4 µM)	66.7%
NC(=O)Nc1cc(-c2cccc(F)c2)sc1C(=O)N[C@H]1CCCNC1 + NCC(=O)Nc1ccc(-n2nc(C(F)(F)F)cc2-c2ccc3c(ccc4ccccc43)c2)cc1 [OSU03012] (first compound 0.02 µM, partner dose 1 µM)	132%
Nc1cccc2c1CN(C1CCC(=O)NC1=O)C2=O (stereo not given) [lenalidomide] + O=C(Nc1ccccc1)c1cc([N+](=O)[O-])ccc1Cl [GW9662] (first compound 1 µM, partner dose 2 µM)	36.3%
Cn1cncc1[C@@](N)(c1ccc(Cl)cc1)c1ccc2c(c1)c(-c1cccc(Cl)c1)cc(=O)n2C [tipifarnib] + COc1cc(N2CCC(N3CCN(C)CC3)CC2)ccc1Nc1ncc(Cl)c(Nc2ccccc2S(=O)(=O)C(C)C)n1 [NVP-TAE684] (first compound 0.01 µM, partner dose 0.08 µM)	471%
Nc1cccc2c1CN(C1CCC(=O)NC1=O)C2=O (stereo not given) [lenalidomide] + CN(C)S(=O)(=O)c1ccc2c(c1)/C(=C/c1cc3c([nH]1)CCCC3)C(=O)N2 [SU6656] (first compound 1 µM, partner dose 0.4 µM)	92.5%
C[C@]1(c2nc3c(C(N)=O)cccc3[nH]2)CCCN1 [Veliparib] + Cc1ccc(NC(=O)c2cccc(N(C)C)c2)cc1NC(=O)c1ccc(O)cc1 [ZM336372] (first compound 1.4 µM, partner dose 2 µM)	165%
C=CCn1c(=O)c2cnc(Nc3ccc(N4CCN(C)CC4)cc3)nc2n1-c1cccc(C(C)(C)O)n1 + NC(=O)Nc1cc(-c2cccc(F)c2)sc1C(=O)N[C@H]1CCCNC1 [AZD7762] (first compound 0.02 µM, partner dose 0.02 µM)	236%
COCC[n+]1c2c(n(Cc3cnccn3)c1C)C(=O)c1ccccc1C2=O + COc1cc(N2CCC(N3CCN(C)CC3)CC2)ccc1Nc1ncc(Cl)c(Nc2ccccc2S(=O)(=O)C(C)C)n1 [NVP-TAE684] (first compound 0.0004 µM, partner dose 0.08 µM)	194%
Cn1nnc2c(C(N)=O)ncn2c1=O [temozolomide] + COc1cc2ncnc(Nc3ccc(Oc4ccccc4)cc3)c2cc1OC [SrcI1] (first compound 2 µM, partner dose 2 µM)	58.9%
CC(C)(C)c1cnc(CSc2cnc(NC(=O)C3CCNCC3)s2)o1 + COC(=O)c1sccc1S(=O)(=O)Nc1ccc(Nc2ccccc2)cc1OC [GSK0660] (first compound 0.01 µM, partner dose 1 µM)	52.7%
CC(=O)c1c(C)c2cnc(Nc3ccc(N4CCNCC4)cn3)nc2n(C2CCCC2)c1=O [palbociclib] + Clc1ccc(Nc2nnc(Cc3ccncc3)c3ccccc23)cc1 [vatalanib] (first compound 0.04 µM, partner dose 2 µM)	98%
Cc1ccc(NC(=O)c2cccc(N(C)C)c2)cc1NC(=O)c1ccc(O)cc1 + Cc1cc(N2CCOCC2)cc2[nH]c(-c3c(NC[C@@H](O)c4cccc(Cl)c4)cc[nH]c3=O)nc12 [BMS536924] (first compound 2 µM, partner dose 0.2 µM)	32.2%
O=C(CCCCCCC(=O)Nc1ccccc1)NO [vorinostat] + CC1(C)NC(=O)N(c2ccc([N+](=O)[O-])c(C(F)(F)F)c2)C1=O [nilutamide] (first compound 0.08 µM, partner dose 1 µM)	121%

Shown with bars between the fields: entries from further up
SMILES | cleaved PARP positive nuclei fraction
Cn1cncc1[C@@](N)(c1ccc(Cl)cc1)c1ccc2c(c1)c(-c1cccc(Cl)c1)cc(=O)n2C [tipifarnib] + COc1cc(N2CCC(N3CCN(C)CC3)CC2)ccc1Nc1ncc(Cl)c(Nc2ccccc2S(=O)(=O)C(C)C)n1 [NVP-TAE684] (first compound 0.01 µM, partner dose 0.08 µM) | 471%
CC(C)(C)c1cnc(CSc2cnc(NC(=O)C3CCNCC3)s2)o1 + COC(=O)c1sccc1S(=O)(=O)Nc1ccc(Nc2ccccc2)cc1OC [GSK0660] (first compound 0.01 µM, partner dose 1 µM) | 52.7%
